In patent publication US20190374627A1, “TARGET PEPTIDES FOR CANCER THERAPY AND DIAGNOSTICS” (priority 2016, published 2019):

How the values were obtained:
Set-up in all cases: key: The presence of phosphopeptides in previously analyzed samples including leukemia, colorectal cancer, melanoma, ovarian cancer, breast cancer, and esophageal cancer is indicated by ✓
leukemia = test: Presence of the phosphopeptide in previously analyzed leukemia samples
melanoma = test: Presence of the phosphopeptide in previously analyzed melanoma samples
colorectal cancer = test: Presence of the phosphopeptide in previously analyzed colorectal cancer samples
breast cancer = test: Presence of the phosphopeptide in previously analyzed breast cancer samples
esophageal cancer = test: Presence of the phosphopeptide in previously analyzed esophageal cancer samples

103 (KPRSPPRAL; (4)...(4) The amino acid at this position is optionally phosphorylated; listed as Homo sapiens) [compound 103]
✓: Leukemia (leukemia) | Melanoma (melanoma) | Colorectal (colorectal cancer) | Breast (breast cancer)

105 (KPRSPVVEL; (4)...(4) The amino acid at this position is optionally phosphorylated; listed as Homo sapiens) [compound 105]
✓: Leukemia (leukemia) | Melanoma (melanoma) | Colorectal (colorectal cancer) | Esophageal (esophageal cancer) | Breast (breast cancer)

111 (LPASPRARL; (4)...(4) The amino acid at this position is optionally phosphorylated; listed as Homo sapiens) [compound 111]
✓: Leukemia (leukemia) | Melanoma (melanoma) | Colorectal (colorectal cancer) | Esophageal (esophageal cancer) | Breast (breast cancer)

114 (LPRGSSPSVL; (5)...(5) The amino acid at this position is optionally phosphorylated; listed as Homo sapiens) [compound 114]
✓: Leukemia (leukemia) | Melanoma (melanoma) | Colorectal (colorectal cancer) | Breast (breast cancer)

120 (RARGISPIVF; (6)...(6) The amino acid at this position is optionally phosphorylated; listed as Homo sapiens) [compound 120]
✓: Leukemia (leukemia) | Melanoma (melanoma) | Colorectal (colorectal cancer) | Breast (breast cancer)

126 (RPASPAAKL; (4)...(4) The amino acid at this position is optionally phosphorylated; listed as Homo sapiens) [compound 126]
✓: Leukemia (leukemia) | Melanoma (melanoma) | Colorectal (colorectal cancer) | Breast (breast cancer)

129 (RPASPQRAQL; (4)...(4) The amino acid at this position is optionally phosphorylated; listed as Homo sapiens) [compound 129]
✓: Leukemia (leukemia) | Melanoma (melanoma) | Colorectal (colorectal cancer) | Breast (breast cancer)

134 (RPDSRLGKTEL; (4)...(4) The amino acid at this position is optionally phosphorylated; listed as Homo sapiens) [compound 134]
✓: Leukemia (leukemia) | Melanoma (melanoma) | Colorectal (colorectal cancer) | Breast (breast cancer)

137 (RPFSPREAL; (4)...(4) The amino acid at this position is optionally phosphorylated; listed as Homo sapiens) [compound 137]
✓: Leukemia (leukemia) | Melanoma (melanoma) | Colorectal (colorectal cancer) | Esophageal (esophageal cancer) | Breast (breast cancer)

139 (RPISPGLSY; (4)...(4) The amino acid at this position is optionally phosphorylated; listed as Homo sapiens) [compound 139]
✓: Melanoma (melanoma) | Colorectal (colorectal cancer) | Esophageal (esophageal cancer) | Breast (breast cancer)

152 (RPQRATSNVF; (6)...(6) The amino acid at this position is optionally phosphorylated; listed as Homo sapiens) [compound 152]
✓: Leukemia (leukemia) | Melanoma (melanoma) | Colorectal (colorectal cancer) | Breast (breast cancer)

156 (RPRARSVDAL; (6)...(6) The amino acid at this position is optionally phosphorylated; listed as Homo sapiens) [compound 156]
✓: Melanoma (melanoma) | Colorectal (colorectal cancer) | Esophageal (esophageal cancer) | Breast (breast cancer)

166 (RPRPVSPSSL; (6)...(6) The amino acid at this position is optionally phosphorylated; listed as Homo sapiens) [compound 166]
✓: Leukemia (leukemia) | Melanoma (melanoma) | Colorectal (colorectal cancer) | Esophageal (esophageal cancer) | Breast (breast cancer)

180 (RPRSPRENSI; (4)...(4) The amino acid at this position is optionally phosphorylated; listed as Homo sapiens) [compound 180]
✓: Leukemia (leukemia) | Melanoma (melanoma) | Colorectal (colorectal cancer) | Breast (breast cancer)

182 (RPRSPRQNSI; (4)...(4) The amino acid at this position is optionally phosphorylated; listed as Homo sapiens) [compound 182]
✓: Leukemia (leukemia) | Melanoma (melanoma) | Colorectal (colorectal cancer) | Esophageal (esophageal cancer) | Breast (breast cancer)

192 (RPTSRLNRL; (4)...(4) The amino acid at this position is optionally phosphorylated; listed as Homo sapiens) [compound 192]
✓: Leukemia (leukemia) | Melanoma (melanoma) | Colorectal (colorectal cancer) | Breast (breast cancer)

193 (RPVSPFQEL; (4)...(4) The amino acid at this position is optionally phosphorylated; listed as Homo sapiens) [compound 193]
✓: Leukemia (leukemia) | Melanoma (melanoma) | Colorectal (colorectal cancer) | Esophageal (esophageal cancer) | Breast (breast cancer)

205 (SPFKRQLSL; (8)...(8) The amino acid at this position is optionally phosphorylated; listed as Homo sapiens) [compound 205]
✓: Melanoma (melanoma) | Colorectal (colorectal cancer) | Esophageal (esophageal cancer) | Breast (breast cancer)

216 (TPRSPPLGL; (4)...(4) The amino acid at this position is optionally phosphorylated; listed as Homo sapiens) [compound 216]
✓: Leukemia (leukemia) | Melanoma (melanoma) | Colorectal (colorectal cancer) | Esophageal (esophageal cancer) | Breast (breast cancer)

217 (TPRSPPLGLI; (4)...(4) The amino acid at this position is optionally phosphorylated; listed as Homo sapiens) [compound 217]
✓: Leukemia (leukemia) | Melanoma (melanoma) | Colorectal (colorectal cancer) | Breast (breast cancer)
